Measured values published in publication PMC11811891, “Structural insights into human TFIIIC promoter recognition” (Science Advances, 2023).
Results are given in words; binding and its absence hold for the method and conditions named. Some binding calls cover weakened binding; strength is not graded here.

Biological target: T1, human TFIIIC subunit TFIIIC110 (human), Q8WUA4
T1 chain: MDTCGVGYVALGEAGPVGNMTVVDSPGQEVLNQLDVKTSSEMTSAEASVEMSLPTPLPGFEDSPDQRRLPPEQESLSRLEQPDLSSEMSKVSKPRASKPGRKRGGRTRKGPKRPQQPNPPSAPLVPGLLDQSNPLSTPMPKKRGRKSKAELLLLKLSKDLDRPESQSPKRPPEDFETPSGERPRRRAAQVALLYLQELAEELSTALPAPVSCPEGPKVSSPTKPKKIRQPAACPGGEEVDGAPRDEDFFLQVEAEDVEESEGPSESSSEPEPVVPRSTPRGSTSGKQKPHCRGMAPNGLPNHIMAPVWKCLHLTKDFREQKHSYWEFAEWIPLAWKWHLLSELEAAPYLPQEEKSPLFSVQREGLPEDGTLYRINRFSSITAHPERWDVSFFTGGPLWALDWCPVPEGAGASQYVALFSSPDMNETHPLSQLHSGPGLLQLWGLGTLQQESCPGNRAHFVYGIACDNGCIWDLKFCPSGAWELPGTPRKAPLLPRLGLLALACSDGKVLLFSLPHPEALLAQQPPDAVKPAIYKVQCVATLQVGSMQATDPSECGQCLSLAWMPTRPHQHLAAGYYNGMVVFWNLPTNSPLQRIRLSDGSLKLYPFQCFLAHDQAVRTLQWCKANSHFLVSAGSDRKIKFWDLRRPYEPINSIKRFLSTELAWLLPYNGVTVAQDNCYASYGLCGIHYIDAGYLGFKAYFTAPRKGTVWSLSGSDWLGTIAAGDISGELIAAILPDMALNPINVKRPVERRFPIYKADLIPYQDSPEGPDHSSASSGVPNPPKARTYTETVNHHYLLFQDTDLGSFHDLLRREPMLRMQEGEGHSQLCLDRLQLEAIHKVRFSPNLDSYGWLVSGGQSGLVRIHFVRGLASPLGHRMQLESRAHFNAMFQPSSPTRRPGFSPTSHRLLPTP
Assay: cryo-EM structure; purified hTFIIIC (3.17 μM) alone or with human TRR-TCT3-2 tRNA gene DNA at a 1:1 molar ratio; EM buffer 20 mM Hepes pH 8, 225 mM KCl, 2 mM MgCl2, 5 mM DTT; 0.1% octyl-β-glucoside; separate reconstructions of τA and of dimeric τB; both purified
Settings: remark: other sources report otherwise

B1: human TFIIIC subunit TFIIIC90 (natural protein)
chain: MNTADQARVGPADDGPAPSGEEEGEGGGEAGGKEPAADAAPGPSAAFRLMVTRREPAVKLQYAVSGLEPLAWSEDHRVSVSTARSIAVLELICDVHNPGQDLVIHRTSVPAPLNSCLLKVGSKTEVAECKEKFAASKDPTVSQTFMLDRVFNPEGKALPPMRGFKYTSWSPMGCDANGRCLLAALTMDNRLTIQANLNRLQWVQLVDLTEIYGERLYETSYRLSKNEAPEGNLGDFAEFQRRHSMQTPVRMEWSGICTTQQVKHNNECRDVGSVLLAVLFENGNIAVWQFQLPFVGKESISSCNTIESGITSPSVLFWWEYEHNNRKMSGLIVGSAFGPIKILPVNLKAVKGYFTLRQPVILWKEMDQLPVHSIKCVPLYHPYQKCSCSLVVAARGSYVFWCLLLISKAGLNVHNSHVTGLHSLPIVSMTADKQNGTVYTCSSDGKVRQLIPIFTDVALKFEHQLIKLSDVFGSVRTHGIAVSPCGAYLAIITTEGMINGLHPVNKNYQVQFVTLKTFEEAAAQLLESSVQNLFKQVDLIDLVRWKILKDKHIPQFLQEALEKKIESSGVTYFWRFKLFLLRILYQSMQKTPSEALWKPTHEDSKILLVDSPGMGNADDEQQEEGTSSKQVVKQGLQERSKEGDVEEPTDDSLPTTGDAGGREPMEEKLLEIQGKIEAVEMHLTREHMKRVLGEVYLHTWITENTSIPTRGLCNFLMSDEEYDDRTARVLIGHISKKMNKQTFPEHCSLCKEILPFTDRKQAVCSNGHIWLRCFLTYQSCQSLIYRRCLLHDSIARHPAPEDPDWIKRLLQSPCPFCDSPVF
notes: TFIIIC90, subunit of human TFIIIC; coding gene from DNASU, codon-optimized for insect cells; No truncation is described; also called τ60 in yeast (homolog); source: Sf21 insect cells, baculovirus, coexpressed with the other five hTFIIIC subunits; purified (anti-FLAG M2 agarose, Capto HiRes Q)
  binding: binds
